Test [1] addresses Biotinylated CD33 (human, captured on Streptavidin biosensors) (human) (UniProt P20138). Description: Octet RED384, biotinylated CD33 saturated with My9.6, then 33H4 at 5 µg/ml for 300 s.
The target is the same in test [2]. Description: Octet RED384, biotinylated CD33 saturated with My9.6, then 27C6 at 5 µg/ml for 300 s.
Test [3] shares this target. The experiment in a line: Octet RED384, biotinylated CD33 saturated with My9.6, then 23E4 at 5 µg/ml for 300 s.

Protein sequences, listed by entry. Tags and fused reporters are not part of them. Lines headed by an entry give the natural chain unless they say otherwise; changes in a name come on top.
UniProt P20138: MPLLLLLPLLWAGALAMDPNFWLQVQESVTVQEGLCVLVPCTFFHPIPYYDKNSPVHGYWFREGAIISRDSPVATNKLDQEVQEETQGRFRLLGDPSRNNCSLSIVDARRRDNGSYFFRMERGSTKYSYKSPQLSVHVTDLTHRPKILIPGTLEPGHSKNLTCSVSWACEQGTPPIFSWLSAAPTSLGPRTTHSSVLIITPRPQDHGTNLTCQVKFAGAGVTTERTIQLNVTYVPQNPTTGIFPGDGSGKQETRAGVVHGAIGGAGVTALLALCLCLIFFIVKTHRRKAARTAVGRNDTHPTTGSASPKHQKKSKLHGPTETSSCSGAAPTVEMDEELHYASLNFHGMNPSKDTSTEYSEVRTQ

In patent publication US20170002074A1 one finds binding data, which are given here for 3 molecules.

Results are given in words; binding and its absence hold for the method and conditions named. Some results given as binding are weak or reduced against the parent protein; the word gives no strength.

B1: 33H4 (antibody, V domains shown)
VH: EVQLQQSGAELVKPGASVKMSCKAFGYTFTTFPIEWMKQSHGKSLEWIGNFHPYNDQTKYNEEFKGRAKLTIDRSSSTVYLELGRLTSDDSAVYYCARGYYYAFDFWGQGTTLTVSS
VL: DIQMTQSPASLTVSLGQRATISCRASESVDSYGNSYLHWYQQKPGQPPQLLIYLASNLESGVPARFSGSGSRTDFTLTIDPVEADDAATYYCQQNNEDPWTFGGGTKVEIK
With B1, the binding result in test [1] is recorded as “binds”.

B2: 27C6 (antibody, V domains shown)
VH: EVQLQQSGPELVKPGASVKVSCKASGYAFTSYNMYWVKQSHGKSLEWIGYIDPYNGGTRHNQKFKDKATLTVDKSSSTAYMHLNSLTSEDSAVYYCASQNYEYFDYWGQGTTLTVSS
VL: DIVLTQSPKFMSTSVGDRVSITCKASQDVGDAVAWYQQKPGQSPKLLFYWTSTRHTGVPDRFTGSGSGTEFTLTIRNVQSEDLADYFCQQYRSTPLTFGSGTKVEIK
For the molecule B2, the binding result in test [2] is reported as “binds”.

B3: 23E4 (antibody, V domains shown)
VH: EVQLQQSGAELVRPGASVKLSCKASGYTFTNYWMNWVKQRPGQGLEWIGMIDPSDNETHYSQMFKDKATLTVDKSSSTAYMQLISLTSEDSAVYYCAGYYGNFGWFVYWGQGTLVTVSA
VL: DIFMTQTPLSLPVSLGDPASISCRSSQTIVHSNGNTYLEWYLQKPGQSPKLLIYKVSNRFSGVPDRFSGSGSGTDFTLKISRVEAEDLGVYYCFQGSHVPPTFGGGTKVEIK
As for B3, the binding entry in test [3] was “binds”.
